SMILES strings stand for the structures.

Results on 2 molecules are retold here after patent US20260191749A1, “COMPOSITION AND PROCESS OF MAKING BIO-BASED UPCYCLED OILS IN FLOW REACTORS” (RiKarbon, Inc., priority 2022, published 2026).

This series can be described thus: Bio-based carbon, ASTM D6866-21 Method B (AMS). The format is physicochemical.

Regarding `CCCCCCC(CCCCC)CCCCC` [RKBA-17], the Bio-based carbon was found to be 100%.

Take `CCCCCCCCCCCC(CCCCC)CCCCC` [RKBA-22]: the Bio-based carbon worked out at 100%.
